Screen size: about 330,000 compounds; about 7,700 (2.3%) were called active. Inconclusive results, whose numbers are uncertain, are shown with a selection of clear calls. Calls come from the whole dose curve; as a rule, active = well fitted inhibition curve with a large enough effect; inconclusive = small, poorly fitted or top-dose-only effect, or effect the other way; inactive = flat fitted curve, though single readings scatter. Where the call is inconclusive, the potency comes from a doubtful curve fit.
Experiment: qHTS screen for small molecules that inhibit ELG1-dependent DNA repair in human embryonic kidney (HEK293T) cells expressing luciferase-tagged ELG1; note: nearly all actives have a fitted effect of over 55% in size
Conditions: HEK293T ELG1-luciferase reporter, luminescence, 16 h, DNA damage induced by 5-fluorouridine; activity change, negative = inhibition: at 46.1 µM (top of the series)
Outline: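 Quantitative HTS, concentration-response format. 2,000 cells/well co-treated with 5-fluorouridine and compound, 16 hr in 5% CO2 at 37 °C; ONE-Glo luminescence read after 30 min.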
% is set by controls: 0 for no effect and ±100 for the full control effect; potency is the fitted concentration of half-maximal effect.

Row | Structure (SMILES) | Potency | activity change, negative = inhibition
1 | COc1ccc(CC(=O)Nc2ccc(S(=O)(=O)N3CCCC3)cc2)cc1OC | inconclusive: 23.1 µM [inhibitor, single point] | 
2 | O=C(Nc1ncc(Cc2ccccc2Cl)s1)C1CCCO1 (configuration not stated) | inconclusive: 10.3 µM [activator, partial curve] | 
3 | CCOC(=O)N1CCN(c2c(NCc3ccc(F)cc3)c(=O)c2=O)CC1 | inconclusive: 6.51 µM [inhibitor, single point] | 
4 | Cc1cc(C)nc(SCC(=O)Nc2ccnc3ccccc23)n1 | inconclusive: 0.461 µM [inhibitor, full curve] | 
5 | COc1cc(/C=N/NC(=S)NCCc2ccccc2)cc(OC)c1OC | inconclusive: 23.1 µM [inhibitor, partial curve, poor fit] | 
6 | O=C(CSc1nc2c([nH]c3ccccc32)c(=O)n1-c1ccccc1)N1CCOCC1 | inconclusive: 6.51 µM [inhibitor, single point] | 
7 | CSc1ccc(CN2CCN(Cc3ccccc3)C(CCO)C2)cc1 (configuration not stated) | inconclusive: 7.3 µM [inhibitor, partial curve, poor fit] | 
8 | COc1ccc(-c2cc(C(=O)Nc3cc(C)on3)no2)cc1OC |  | inactive: 10.8%
9 | O=C(NC(=S)NCc1ccccc1)c1ccccc1F | inconclusive: 31.6 µM [activator, single point] | 
10 | Nc1nc(NCC2CCCO2)nc(Nc2ccccc2)c1[N+](=O)[O-] (configuration not stated) | inconclusive: 13 µM [inhibitor, partial curve, poor fit] | 
11 | CS(=O)(=O)Nc1cccc(C2=NN(C(=O)c3cccc([N+](=O)[O-])c3)C(c3cccs3)C2)c1 (configuration not stated) | active: 13 µM | 
12 | Cn1c(N)c(C(=O)COC(=O)Cc2cccc(C(F)(F)F)c2)c(=O)n(C)c1=O |  | inactive: -13.6%
13 | CCOC(=O)C1CCN(C(=O)CS(=O)(=O)Cc2nc(-c3ccccc3Cl)oc2C)CC1 |  | inactive: -14.9%
14 | Cn1c(=O)n(C)c2cc(NC(=O)CSc3nnc(-c4ccccc4O)n3-c3ccccc3)ccc21 |  | inactive: -9.94%
15 | CCCCCn1nc(C(=O)OCC(=O)c2c(N)n(C)c(=O)n(C)c2=O)c2ccccc2c1=O | inconclusive: 29.1 µM [inhibitor, single point] | 
16 | Cc1ccc(NC(=O)NCCSc2ccc(C)cc2)cc1 |  | inactive: 5.88%
17 | CN(C)/C=C1/C=C(c2ccccc2)OC1=O | inconclusive: 18.4 µM [activator, single point] | 
18 | O=C1/C(=C/c2ccc([N+](=O)[O-])cc2)Oc2cc(O)ccc21 | inconclusive: 29.1 µM [activator, single point] | 
19 | CCN1C(=O)C(CC(=O)Nc2ccc(OC)cc2)N(Cc2ccc3c(c2)OCO3)C1=S (configuration not stated) | inconclusive: 29.1 µM [inhibitor, single point] | 
20 | COc1cc(S(=O)(=O)Nc2ccc(C)cc2)ccc1N=Cc1c(C)[nH]n(-c2ccccc2)c1=O | inconclusive: 29.1 µM [inhibitor, single point] | 
21 | COc1cc2c(C#N)c(N3CCOCC3)nc(N)c2c(N)n1 |  | inactive: -0.254%
22 | C=CCNC(=O)NC(=O)CSc1nc2cc([N+](=O)[O-])ccc2n1-c1cccc(C(F)(F)F)c1 | inconclusive: 23.1 µM [activator, single point] | 
23 | CSc1ccc(CNc2ccccc2)cc1 | inconclusive: 18.4 µM [activator, single point] | 

Row | Structure (SMILES) | Potency | activity change, negative = inhibition
24 | O=C(Nc1ccc(Cl)c(S(=O)(=O)N2CCOCC2)c1)c1ccc(Cl)nc1 | inconclusive: 23.1 µM [inhibitor, single point] | 
25 | Nn1c(SCC(=O)Nc2ccc3c(c2)OCO3)nnc1C1CC1 |  | inactive: 0.694%
26 | O=c1oc2ccccc2c(NC(c2ccccc2)c2ccccc2)c1[N+](=O)[O-] |  | inactive: -3.33%
27 | O=C(Nc1ccc(S(=O)(=O)NC2CCCCC2)cc1)c1ccco1 | inconclusive: 13 µM [inhibitor, partial curve, poor fit] | 
28 | COc1ccc(CNC(=O)[C@H](NC(=O)C2CCN(C(=O)[C@@H](N)CCSC)CC2)C(C)C)cc1 | inconclusive: 0.164 µM [inhibitor, full curve, poor fit] | 
29 | COc1cc(/C=N/NC(=O)c2ccc(CN(C)S(=O)(=O)c3ccc(C)cc3)cc2)ccc1O | inconclusive: 29.1 µM [inhibitor, single point] | 
30 | C=C(C)C(=O)Nc1cccc(C2=NOC3(C2)C[C@@H](C(N)=O)N(C(=O)CC(c2ccccc2)c2ccccc2)C3)c1 (some centres not stated) | inconclusive: 8.2 µM [inhibitor, partial curve] | 
31 | O=C(O)C(Cc1ccccc1)N1C(=O)/C(=C/C=C/c2ccco2)SC1=S (configuration not stated) | inconclusive: 7.3 µM [activator, partial curve, poor fit] | 
32 | CCOc1ccc(N=C2NC(=O)CS2)cc1 |  | inactive: -6.3%
33 | CNC(=O)c1[nH]cnc1C(=O)Nc1ccc(F)cc1 |  | inactive: 26.8%
34 | Cc1ccc(NC(=O)NCc2cccnc2)cc1Cl | inconclusive: 16.4 µM [activator, partial curve] | 
35 | CCOC(=O)c1c(NC(=O)CSc2nc3ccccc3s2)sc(C(C)=O)c1C | inconclusive: 35.5 µM [inhibitor, single point] | 
36 | Cc1cccc(NS(=O)(=O)c2cc(C(=O)OCC(=O)Nc3cc(C)on3)ccc2C)c1 |  | inactive: 4.59%
37 | Nc1ncnc2c1ncn2CCOc1ccccc1 | inconclusive: 25.9 µM [activator, single point] | 
38 | N=c1sccn1CC(=O)Nc1ccccc1Sc1ccccc1 |  | inactive: -13.6%
39 | CC(C)(C)c1ccc(C(=O)OCC(=O)N2CCC(c3ccccc3)=N2)cc1 |  | inactive: 12.6%
40 | CCOC(=O)c1csc(NC(=O)Nc2cccc(Cl)c2)n1 |  | inactive: 4.78%
41 | CCCCCCCn1ccc(O)c(CC(=O)OC)c1=O |  | inactive: -2.39%
42 | COCCn1nnnc1C(c1ccc(C)cc1)N1CCN(Cc2ccc3c(c2)OCO3)CC1 (configuration not stated) |  | inactive: -2.69%
43 | COc1ccc(NC(=O)COC(=O)CCc2ccc(S(=O)(=O)N3CCOCC3)cc2)cc1OC | inconclusive: 20.6 µM [activator, partial curve, poor fit] | 
44 | COc1ccccc1-c1nnc(NC(=O)C(C)SC2=NCCS2)s1 (configuration not stated) | inconclusive: 32.6 µM [inhibitor, partial curve, poor fit] | 
45 | COc1ccccc1CCNC(=O)c1cc(-c2ccccn2)nc2ccccc12 | inconclusive: 10.3 µM [inhibitor, partial curve] | 
46 | Cc1ccc(NC(=O)c2c(-c3c(F)cccc3Cl)noc2C)cc1F | inconclusive: 35.5 µM [inhibitor, single point] | 

Complete entries from above:
CCCCCCCn1ccc(O)c(CC(=O)OC)c1=O is listed with activity change, negative = inhibition: inactive: -2.39%
C=C(C)C(=O)Nc1cccc(C2=NOC3(C2)C[C@@H](C(N)=O)N(C(=O)CC(c2ccccc2)c2ccccc2)C3)c1 (some centres not stated) is listed with Potency: inconclusive: 8.2 µM [inhibitor, partial curve]
O=C(Nc1ccc(Cl)c(S(=O)(=O)N2CCOCC2)c1)c1ccc(Cl)nc1 is listed with Potency: inconclusive: 23.1 µM [inhibitor, single point]

More compounds follow.

Row | Structure (SMILES) | Potency | activity change, negative = inhibition
47 | Cc1cccc2cc3c(N)c(C(=O)N4CCOCC4)sc3nc12 | inconclusive: 4.47 µM [activator, full curve] | 
48 | CCOC(=O)Nc1ccc2c(c1)N(C(=O)N1CCN(C)CC1)c1ccccc1CC2 | inconclusive: 23.1 µM [activator, partial curve] | 
49 | CCCn1c(NC(=O)c2ccc(Br)cc2)nc2ccccc21 | inconclusive: 32.6 µM [activator, single point] | 
50 | CC1CCN(c2ccc(C(=O)NCc3cccs3)cn2)CC1 | inconclusive: 20.6 µM [activator, partial curve] | 
51 | O=C(CN1CCC(c2nc3ccccc3s2)CC1)N1CCCCC1 | inconclusive: 18.3 µM [inhibitor, single point] | 
52 | Cc1ccc(O)c(NC(=O)c2cc(-c3ccccc3Cl)on2)c1 | inconclusive: 9.2 µM [activator, partial curve] | 
53 | COC(=O)c1ccc2c(c1)N(Cc1nc(-c3cccc(C)c3)oc1C)C(=O)C1CCCN21 (configuration not stated) |  | inactive: 3.65%
54 | CC(=O)c1[nH]c(C)c(C(=O)N2CCCC(Nc3cccc(F)c3)C2)c1C (configuration not stated) | inconclusive: 9.2 µM [activator, partial curve] | 
55 | CN(Cc1cc(=O)n2ccsc2n1)Cc1nc2ccccc2c(=O)[nH]1 |  | inactive: -3.95%
56 | Cc1c(C(=O)Nc2ccccn2)oc2ccc(Br)cc12 | inconclusive: 3.66 µM [activator, partial curve] | 
57 | CSc1ccc(/C=C/c2cc(=O)c3ccccc3[nH]2)cc1 | inconclusive: 20.6 µM [activator, single point] | 
58 | NNC(=O)c1sc2nc(N3CCOCC3)c3c(c2c1N)CCCC3 | inconclusive: 29.1 µM [inhibitor, single point] | 
59 | COc1ccc(OC)c(-n2c(=O)c3ccccc3c3ccccc3c2=O)c1 | inconclusive: 23.1 µM [activator, single point] | 
60 | O=C(c1ccc(OC2CCN(CCc3ccccc3)CC2)cc1)N1CCCC1 | inconclusive: 23.1 µM [activator, partial curve, poor fit] | 
61 | O=C(COC(=O)c1cnccn1)c1ccc(OC(=O)c2ccccc2)cc1 | inconclusive: 29.1 µM [activator, partial curve, poor fit] | 
62 | Cc1c(C)c2c(OCC(=O)NCc3ccccn3)cc3c(c2oc1=O)CCC(C)(C)O3 | inconclusive: 13 µM [inhibitor, single point] | 
63 | CC(C)c1csc(CN2CCCC(CNC(=O)c3cccc4ccccc34)C2)n1 (configuration not stated) | inconclusive: 25.9 µM [inhibitor, partial curve, poor fit] | 
64 | O=C(COC(=O)c1cc(S(=O)(=O)Nc2ccccc2Cl)ccc1O)Nc1ccc(F)c(F)c1F |  | inactive: 7.14%
65 | CCN(CCNC(=O)c1ccc(CSc2nc3ccncc3[nH]2)cc1)c1ccccc1 | inconclusive: 29.1 µM [inhibitor, single point] | 
66 | NC(=O)c1ccccc1N/C=C/C(=O)c1cccs1 | inconclusive: 1.84 µM [activator, full curve] | 
67 | Cc1occc1-c1nnc(SCC(=O)Nc2ccc(F)cc2)n1Cc1ccccc1 | inconclusive: 18.4 µM [inhibitor, single point] | 

Reference: PubChem BioAssay AID504467 (National Center for Advancing Translational Sciences (NCATS), 2011)
